The nature of this experiment: IkB Signaling. The following applies: ABC-DLBCL IkBa-CBG/CBR dual luciferase ratio (green luciferase fused to IkBa over red control in OCI-Ly3 lymphoma cells), 4 h. In a few lines: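 In this assay, an IκBα–CBG68 fusion accumulates when IKK-driven degradation is blocked; native CBR normalizes for cell number. OCI-Ly3 cells were treated 4 h with compound and doxycycline, then green and red light read after Chroma-Glo addition.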
The mark [1] stands for this setting: measured here: control luc red channel unless noted.

The list shows a part of the results. Further columns of the screen follow, without active or inactive calls. The list favours compounds with an active or inconclusive main result. Words in brackets tell the shape of the fitted curve; partial curves, single points and poor fits give uncertain potencies.

Turning to `Cc1ccc(NC(=O)CCCc2nc(-c3ccco3)no2)cc1Cl`, under setting [1], the half-maximal activity concentration (AC50) is 31.6 µM [falling, partial curve].

For `COc1ccc(-c2noc(CCC(=O)N(C)c3cc(Cl)ccc3OC)n2)cc1`, under setting [1], the concentration at half-maximal activity (AC50) was 39.8 µM [falling, single point]. As for `COc1ccc(NS(=O)(=O)c2ccc(N3CCCCS3(=O)=O)cc2)cc1Cl`, the AC50 under setting [1] was 39.8 µM [falling, partial curve, poor fit]. For `CCc1nn(C(CC)C(=O)NCc2ccc(OC)c(OC)c2)c(=O)c2cc3oc(C)cc3n12` (stereo not drawn), under setting [1], the AC50 is 20 µM [falling, single point]. Same read-out and setting: then `Cc1nn(-c2nc(-c3ccccc3)cc(C(F)(F)F)n2)c(C)c1Cl`, with 20 µM [falling, partial curve].

For the molecule `Cc1ccc(OCCSc2nc(-c3ccccc3C)nc3cc(=O)[nH]n23)cc1Cl`, under setting [1], the AC50 was 25.1 µM [falling, partial curve]. Take `CCCCNC(=O)c1cccc(NC(=O)c2nsc3ccccc23)c1`: under setting [1], the concentration at half-maximal activity (AC50) is 0.1 µM [rising, full curve]. For `CCOc1ccc2c(c1)c(=O)c(C(=O)c1ccc3c(c1)OCO3)cn2Cc1ccc(F)cc1`, under setting [1], the concentration at half-maximal activity (AC50) is 20 µM [falling, single point]. On the same count and under the same terms, under `COc1cc(/C=C(\C#N)c2nc3ccc(C)cc3[nH]2)ccc1OCc1ccc(C)cc1` stands 15.8 µM [falling, partial curve]. The same measure, in the same setting: then `CCc1ccc(C2C(C(=O)Nc3ccccc3OC)=C(C)Nc3c(C(=O)Nc4ccc(C)cc4)cnn32)cc1` (stereo not drawn), with 2.51 µM [falling, partial curve]. As to `CCN(C(=O)c1cn(-c2cccc(OC)c2)c(=O)c2ccccc12)c1ccccc1C`, under setting [1], the AC50 was 15.8 µM [falling, partial curve]. With `Cc1ccc(C)c(NC(=O)CSc2nccn2-c2cccc(C)c2C)c1`, the AC50 under setting [1] was 25.1 µM [falling, partial curve, poor fit]. The same measure, in the same setting: under `CC(=O)c1cc2c(cc1NC(=O)c1ccc(-n3nc(C)cc3C)cc1)OCO2` stands 0.0631 µM [falling, full curve, poor fit]; under `O=C(CSc1nnc(-c2ccco2)o1)N1c2ccccc2CCc2ccccc21`, 5.01 µM [falling, partial curve]. On to `COc1ccc(OC)c(NC(=O)c2oc(=O)c3ccccc3c2-c2ccccc2)c1`, for which, under setting [1], the AC50 was 31.6 µM [falling, single point]. For `COc1ccc(CC(=O)N2CCc3cc(OC)c(OC)cc3C2COc2ccc(F)cc2)cc1` (stereo not drawn), under setting [1], the concentration at half-maximal activity (AC50) is 39.8 µM [falling, single point]. For `Cn1nc(-c2ccccc2F)c2cc(C(=O)NCc3ccccc3Cl)sc21`, under setting [1], the AC50 was 12.6 µM [falling, partial curve].

Consider `COc1ccc(N2CCN(S(=O)(=O)c3ccc(F)c(C(=O)Nc4ccccc4Cl)c3)CC2)cc1`, for which, under setting [1], the AC50 was 2 µM [falling, partial curve].

Turning to `CCOc1ccc(NCc2cccn2-c2nnc(N3CCC(C(=O)NCc4ccccc4Cl)CC3)s2)cc1`, the AC50 under setting [1] is 15.8 µM [falling, partial curve, poor fit].

As for `CC(C)(C)OC(=O)N1CCC(c2c(C(=O)NCc3cccs3)cnn2-c2cccc(F)c2)CC1`, the AC50 under setting [1] is 20 µM [falling, partial curve].

As for `COc1ccc(C(=O)Nc2nncs2)cc1S(=O)(=O)N1CC(c2ccccc2)CC1=O` (stereo not drawn), the AC50 under setting [1] was 3.98 µM [falling, full curve].

Turning to `CC(C)COc1cccc(C(=O)Nc2ccc(S(=O)(=O)N3CCOCC3)cc2)c1`, the AC50 under setting [1] was 20 µM [falling, partial curve]. Consider `CCN(CC)S(=O)(=O)c1cccc(C(=O)Nc2ccccc2C(=O)Nc2ccc(Cl)cc2)c1`, for which the AC50 under setting [1] is 20 µM [falling, partial curve]. On the same count and under the same terms, then `CC(=O)c1ccc(NC(=O)c2cc(C)nn2-c2ccccc2)cc1`, with 39.8 µM [falling, single point]. Turning to `COCCN(CCOC)S(=O)(=O)c1ccc(C(=O)Nc2sc3c(c2C(=O)OC)CCN(C)C3)cc1`, under setting [1], the AC50 was 3.16 µM [falling, partial curve, poor fit]. Turning to `CCOc1cccc(C(=O)Nc2ccc(-c3nc4ncccc4o3)cc2C)c1`, the AC50 under setting [1] was 0.0398 µM [falling, full curve, poor fit]. The same measure, in the same setting: then `CCCCN(CCCNC(=O)c1cc(Nc2cccc(SC)c2)nc2ccccc12)Cc1ccccc1`, with 5.01 µM [falling, full curve]; and `CN(C)S(=O)(=O)N(CC(=O)NCCSCc1c(F)cccc1Cl)c1ccccc1`, with 15.8 µM [falling, partial curve]. Same read-out and setting: then `CCCN1CCN(CCCNC(=O)c2cc3c(=O)n(CC)c4ccccc4c3s2)CC1`, with 7.94 µM [falling, partial curve]; and `CCOC(=O)N1CCc2c(sc3c2C(=O)NC(c2ccc(N(C)C)cc2)N3)C1` (stereo not drawn), with 3.16 µM [rising, full curve]. The same measure, in the same setting: under `Brc1ccc(-c2nc(-c3ccccn3)no2)o1` stands 10 µM [falling, partial curve]. Take `O=Nc1ccc2oc(=O)ccc2c1`: the AC50 (measured here: IkB-luc green channel) is 31.6 µM [falling, partial curve, poor fit] and the AC50 (measured here: control luc red channel) was 10 µM [falling, partial curve]. `CC(=O)Nc1ccc(/C=C/c2noc(-c3ccccc3O)n2)cc1`: the AC50 under setting [1] is 39.8 µM [falling, single point]. In the case of `CCc1nnc(NC(=O)c2cc(=O)c3cc(C)ccc3o2)s1`, the half-maximal activity concentration (AC50) under setting [1] is 0.398 µM [rising, full curve, poor fit]. Still for that read-out and setting: under `CCC(C)(C)NC(=O)C(c1cccn1C)N(C(=O)Cn1nnc2ccccc21)c1ccc(OC)cc1` (stereo not drawn) stands 31.6 µM [falling, partial curve]; under `Cc1ccc(C)c(N2CCN(C(=O)Cn3cnc4onc(-c5ccc(F)cc5)c4c3=O)CC2)c1`, 12.6 µM [falling, partial curve]. The same measure, in the same setting: then `Cc1ccc(S(=O)(=O)CC(=O)Nc2nc3c(C)cc(C)cc3s2)cc1`, with 31.6 µM [falling, partial curve]; and `Cc1ccc(NC(=O)Nc2ccc(F)cc2)nc1`, with 15.8 µM [falling, single point].

On to `COc1cccc(NC(=O)c2cccc3c(=O)c4c([nH]c23)CCCC4)c1`, for which, under setting [1], the concentration at half-maximal activity (AC50) was 0.01 µM [rising, full curve]. Still for that read-out and setting: under `NC(=O)C1(N2CCCCC2)CCN(C(=O)c2ccc(C#Cc3ccccc3)o2)CC1` stands 15.8 µM [falling, partial curve]; under `CCOc1ccc(OCC)c(NC(=O)c2cc(S(=O)(=O)N3CCc4ccccc43)cn2C)c1`, 10 µM [falling, partial curve]; under `O=C(CSc1nnc(-c2cccnc2)n1Cc1ccco1)c1ccc(Br)cc1`, 15.8 µM [falling, partial curve]. On the same count and under the same terms, under `Cc1cc(C)cc(NC(=O)C(Cc2ccccc2)NS(=O)(=O)c2ccc3c(c2)CCC(=O)N3)c1` (stereo not drawn) stands 31.6 µM [falling, partial curve, poor fit]; under `CCOc1ccccc1NC(=O)C(=O)Nc1ccc2nc3n(c(=O)c2c1)CCCCC3`, 2 µM [falling, full curve].

With `CCOC(=O)C1(C)C=C(Nc2cccc(C(=O)O)c2)C(=O)N1c1ccccc1` (stereo not drawn), the AC50 under setting [1] is 2.51 µM [falling, partial curve].

As to `Cc1ccc(CNC(=O)C(=O)NCC(c2ccc3c(c2)OCO3)N2CCOCC2)cc1` (stereo not drawn), under setting [1], the AC50 is 20 µM [falling, partial curve, poor fit]. For `COc1ccccc1N1CCN(C(=O)C2CCCN(S(=O)(=O)c3ccc4c(c3)CCCN4C(C)=O)C2)CC1` (stereo not drawn), the half-maximal activity concentration (AC50) under setting [1] is 39.8 µM [falling, single point]. Still for that read-out and setting: then `Cn1nc(CC(=O)Nc2ccc(N3CCN(C(=O)OC(C)(C)C)CC3)cc2)c2ccccc2c1=O`, with 6.31 µM [falling, partial curve]; and `COc1cc(Cl)c(C)cc1NC(=O)c1cnc(N2CCCCC2)c2ccccc12`, with 20 µM [falling, partial curve]; and `CC(C)Cn1c(-c2cccc(Br)c2)nc2ccccc21`, with 25.1 µM [falling, single point]. On the same count and under the same terms, then `O=C(CSc1nc(-c2cccc(F)c2)[nH]c1-c1ccccc1)Nc1ccc2c(c1)OCO2`, with 15.8 µM [falling, partial curve]. On the same count and under the same terms, under `COc1ccc(-n2c(Cc3cccn3C)nnc2SCC(=O)Nc2ccc(C)cc2)cc1` stands 20 µM [falling, partial curve]; under `Cc1ccc(-n2ncc(C(=O)NCc3ccco3)c2C2CCN(C(=O)OC(C)(C)C)CC2)cc1C`, 0.0316 µM [falling, full curve, poor fit].

As for `CC(C)(C)CC(=O)Nc1nnc(-c2cccs2)s1`, the AC50 under setting [1] was 0.00794 µM [rising, full curve]. Same read-out and setting: under `Cc1cc(N2CCCCC2)nc(SCC(=O)c2ccccc2)n1` stands 31.6 µM [falling, single point]; under `COc1ccc(OC)c(NS(=O)(=O)c2ccc(NC(=O)C3COc4ccccc4O3)cc2)c1` (stereo not drawn), 3.98 µM [falling, partial curve]; under `O=C(Nc1sc2c(c1C(=O)NCc1cccnc1)CCCC2)c1ccco1`, 12.6 µM [falling, partial curve]. The same measure, in the same setting: under `CCCCCCOc1ccc(C2C(=O)N(C3CCCCC3)CC(=O)N2C2CCCCC2)cc1` (stereo not drawn) stands 39.8 µM [falling, single point]; under `CCN(CC)S(=O)(=O)c1ccc(C(=O)NCCSc2c(-c3ccccc3)[nH]c3ccccc23)cc1`, 10 µM [falling, partial curve, poor fit]. For `CC1CCN(Cc2nc(-c3ccccc3)no2)CC1`, under setting [1], the half-maximal activity concentration (AC50) was 2 µM [rising, partial curve]. Still for that read-out and setting: then `Cc1c(C(=O)NCc2cccnc2)sc2nc(-c3ccc(F)cc3)cn12`, with 20 µM [falling, partial curve]; and `COc1cc(NC(=O)CSc2c3c(nc4ccccc24)CCC3)cc(OC)c1OC`, with 3.98 µM [falling, full curve].
